From article PMC8483905
Results are given in words; binding and its absence hold for the method and conditions named. Binding seen in cells or lysates may run through a third protein. Some entries that bind do so weakly or less than the wild type.

Protein sequences, listed by entry. Tags and fused reporters are not part of them.
UniProt O88643: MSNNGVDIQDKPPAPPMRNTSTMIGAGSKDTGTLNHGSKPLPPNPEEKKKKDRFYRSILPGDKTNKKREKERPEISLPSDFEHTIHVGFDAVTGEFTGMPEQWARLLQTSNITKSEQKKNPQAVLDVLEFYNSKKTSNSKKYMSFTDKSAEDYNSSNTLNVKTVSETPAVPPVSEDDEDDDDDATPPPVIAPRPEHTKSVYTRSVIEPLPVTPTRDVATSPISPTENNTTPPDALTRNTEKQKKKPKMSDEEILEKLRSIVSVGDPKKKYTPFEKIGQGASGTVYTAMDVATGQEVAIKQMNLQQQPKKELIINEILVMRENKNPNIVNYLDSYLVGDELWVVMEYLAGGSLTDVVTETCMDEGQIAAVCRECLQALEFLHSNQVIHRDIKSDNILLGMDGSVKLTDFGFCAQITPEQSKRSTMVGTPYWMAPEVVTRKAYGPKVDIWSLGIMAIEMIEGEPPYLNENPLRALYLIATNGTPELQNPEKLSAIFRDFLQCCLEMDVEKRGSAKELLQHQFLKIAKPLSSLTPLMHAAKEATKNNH
UniProt P37238: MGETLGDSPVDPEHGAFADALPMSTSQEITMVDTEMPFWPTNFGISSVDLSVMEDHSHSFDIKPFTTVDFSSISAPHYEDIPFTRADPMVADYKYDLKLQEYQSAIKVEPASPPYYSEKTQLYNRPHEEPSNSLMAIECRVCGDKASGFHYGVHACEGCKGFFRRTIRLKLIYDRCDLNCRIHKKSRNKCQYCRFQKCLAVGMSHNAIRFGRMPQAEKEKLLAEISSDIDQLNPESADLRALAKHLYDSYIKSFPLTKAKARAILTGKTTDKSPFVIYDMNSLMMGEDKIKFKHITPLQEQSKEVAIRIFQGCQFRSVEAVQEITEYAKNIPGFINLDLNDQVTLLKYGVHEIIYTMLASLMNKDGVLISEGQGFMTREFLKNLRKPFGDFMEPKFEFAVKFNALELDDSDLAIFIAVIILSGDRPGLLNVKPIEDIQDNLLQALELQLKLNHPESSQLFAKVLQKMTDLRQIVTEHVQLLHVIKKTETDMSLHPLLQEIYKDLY

Biological target: P21-activated kinases 1 (PAK1) (mouse (endogenous in BMDMs)) (UniProt O88643)
Experiment: co-IP; endogenous proteins in BMDM lysate; precleared with immunoglobulin G and protein A beads; immunoprecipitation with PAK1 antibody and protein A-agarose at 4°C overnight, five washes with lysis buffer; immunoblot with PPARγ or PAK1 antibody

binding: binds
Substance: peroxisome proliferator-activated receptor γ (PPARγ) (from UniProt P37238 1-505)
